No constants are given. Whether binding was seen depends on the method and setting. Binding can be weak; no strength is given.
Columns and labels:
TGFβ1 (R&D Systems) = assay: SPR
TGFβ2 (R&D Systems) = assay: SPR

| binding (TGFβ1 (R&D Systems)) | binding (TGFβ2 (R&D Systems)) | Binder |
| --- | --- | --- |
| no binding | no binding | felHclb_heterochimera-13 (antibody, V domains shown) VH: QVLLVQSGAEVRRPGASVKIFCKASGYIFITYYMHWLRQAPAQGFEWMGQIFPASGSTNYNEMFEGRLTLTADTSTDTAYMELSSLRSADTAVYYCARGDGNYALDAMDYWGHGTIVTVSS VL: DIVLTQTPASLAVSLGQRATISCRASESVDSYGNSFMHWYQQKSGQPPKLLIYLASNLESGVPARFSGSGSRTDFTLTIDPVEADDAATYYCQQNNEDPLTFGAGTK |
| no binding | no binding | felHclb_heterochimera-15 (antibody, V domains shown) VH: QVLLVQSGAEVRKPGASVKIFCKASGYTFITYYMHWLRQAPEQGLEWMGRIFPASGSTSYAQKFQGRLTLTADTSTNTAYMELSSLRSADTAMYYCARGDGNYALDAMDYWGQGALVTVSS VL: DIVLTQTPASLAVSLGQRATISCRASESVDSYGNSFMHWYQQKSGQPPKLLIYLASNLESGVPARFSGSGSRTDFTLTIDPVEADDAATYYCQQNNEDPLTFGAGTK |
| binds | binds | felHclb_heterochimera-8 (antibody, V domains shown) VH: EVQLVQSGAEVKKPGASVKVSCKTSGYTFITYWMNWVRQAPGAGLDWMGQIFPASGSTNYNEMFEGRVTLTADTSTSTAYMELSSLRAGDIAVYYCARGDGNYALDAMDYWGQGTLVT VL: EIQMTQSPSSLSASPGDRVTITCRASESVDSYGNSFMHWYQQKPGKVPKLLIYLASNLESGVPSRFSGSGSGTDFTLTISSLEPEDAATYYCQQNNEDPLTFGAGT |
| no binding | no binding | felHclb_heterochimera-12 (antibody, V domains shown) VH: QVLLVQSGAEVRTPGASVKIFCKASGYIFITYYMHWVRQSPAQGLEWMGSIFPASGSTSYAQKFQGRLTLTADTSTNTAYMELSSLRSADTAMYYCARGDGNYALDAMDYWGQGTSVTVSS VL: DIVLTQTPASLAVSLGQRATISCRASESVDSYGNSFMHWYQQKSGQPPKLLIYLASNLESGVPARFSGSGSRTDFTLTIDPVEADDAATYYCQQNNEDPLTFGAGTK |
| binds | binds | felHclb_heterochimera-10 (antibody, V domains shown) VH: EVQLVQSGAEVKKPGASVKVSCKTSGYTFITYWMNWVRQAPGAGLDWMGQIFPASGSTNYNEMFEGRVTLTADTSTSTAYMELSSLRAGDIAVYYCARGDGNYALDAMDYWGQGTLVT VL: DVVMTQTPLSLPVTPGEPASISCRASESVDSYGNSFMHWYLQKPGQSPRRLIYLASNLESGVPDRFSGSGSGTDFTLRISRVEADDVGVYYCQQNNEDPLTFGAGT |
| binds | binds | felHclb_heterochimera-9 (antibody, V domains shown) VH: EVQLVQSGAEVKKPGASVKVSCKTSGYTFITYWMNWVRQAPGAGLDWMGQIFPASGSTNYNEMFEGRVTLTADTSTSTAYMELSSLRAGDIAVYYCARGDGNYALDAMDYWGQGTLVT VL: AITMTQSPGSLAGSPGQQVTMNCRASESVDSYGNSFMHWYQQKPGQHPKLLIYLASNLESGVPDRFSGSGSGTDFTLTISNLQAEDVASYYCQQNNEDPLTFGAGT |
| no binding | no binding | felHclb_heterochimera-14 (antibody, V domains shown) VH: QVLLVQSGAEVRTPGASVKIFCKASGYIFITYYMHWVRQSPAQGLEWMGQIFPASGSTNYNEMFEGRLTLTADTSTNTAYMELSSLRSADTAMYYCARGDGNYALDAMDYWGQGTSVTVSS VL: DIVLTQTPASLAVSLGQRATISCRASESVDSYGNSFMHWYQQKSGQPPKLLIYLASNLESGVPARFSGSGSRTDFTLTIDPVEADDAATYYCQQNNEDPLTFGAGTK |
| no binding | no binding | felHclb_heterochimera-16 (antibody, V domains shown) VH: QVLLVQSGAEVRKPGASVKIFCKASGYTFITYYMHWLRQAPEQGLEWMGQIFPASGSTNYNEMFEGRLTLTADTSTNTAYMELSSLRSADTAMYYCARGDGNYALDAMDYWGQGALVTVSS VL: DIVLTQTPASLAVSLGQRATISCRASESVDSYGNSFMHWYQQKSGQPPKLLIYLASNLESGVPARFSGSGSRTDFTLTIDPVEADDAATYYCQQNNEDPLTFGAGTK |

Further lines, the binder ahead of its results:

| Binder | binding (TGFβ1 (R&D Systems)) | binding (TGFβ2 (R&D Systems)) |
| --- | --- | --- |
| felHclb-2 (antibody, V domains shown) VH: QVLLVQSGAEVRRPGASVKIFCKASGYIFITYYMHWLRQAPAQGFEWMGSIFPASGSTSYAQKFQGRLTLTADTSTDTAYMELSSLRSADTAVYYCARGDGNYALDAMDYWGHGTIVTVSS VL: EIQMTQSPSSLSASPGDRVTITCRASESVDSYGNSFMHWYQQKPGKVPKLLIYLASNLESGVPSRFSGSGSGTDFTLTISSLEPEDAATYYCQQNNEDPLTFGAGT | binds | binds |
| felHclb 1-1xWMN (antibody, V domains shown) VH: QVLLVQSGAEVRTPGASVKIFCKASGYIFITYWMNWVRQSPAQGLEWMGQIFPASGSTNYNEMFEGRLTLTADTSTNTAYMELSSLRSADTAMYYCARGDGNYALDAMDYWGQGTSVTVSS VL: EIQMTQSPSSLSASPGDRVTITCRASESVDSYGNSFMHWYQQKPGKVPKLLIYLASNLESGVPSRFSGSGSGTDFTLTISSLEPEDAATYYCQQNNEDPLTFGAGT | binds | binds |
| felHclb-13 (antibody, V domains shown) VH: QVLLVQSGAEVRTPGASVKIFCKASGYIFITYYMHWVRQSPAQGLEWMGSIFPASGSTSYAQKFQGRLTLTADTSTNTAYMELSSLRSADTAMYYCARGDGNYALDAMDYWGQGTSVTVSS VL: DIVMTQTPLSLPVTPGEPASISCRASESVDSYGNSFMHWYLQKPGQSPRLLIYLASNLESGVPSRFSGSGSGTDFTLRISSVEADDVGVYYCQQNNEDPLTFGAGT | binds | binds |
| felHclb-14 (antibody, V domains shown) VH: QVLLVQSGAEVRTPGASVKIFCKASGYIFITYYMHWVRQSPAQGLEWMGSIFPASGSTSYAQKFQGRLTLTADTSTNTAYMELSSLRSADTAMYYCARGDGNYALDAMDYWGQGTSVTVSS VL: EIQMTQSPSSLSASPGDRVTITCRASESVDSYGNSFMHWYQQKPGKVPKLLIYLASNLESGVPSRFSGSGSGTDFTLTISSLEPEDAATYYCQQNNEDPLTFGAGT | binds | binds |
| felHclb-15 (antibody, V domains shown) VH: QVLLVQSGAEVRTPGASVKIFCKASGYIFITYYMHWVRQSPAQGLEWMGSIFPASGSTSYAQKFQGRLTLTADTSTNTAYMELSSLRSADTAMYYCARGDGNYALDAMDYWGQGTSVTVSS VL: AITMTQSPGSLAGSPGQQVTMNCRASESVDSYGNSFMHWYQQKPGQHPKLLIYLASNLESGVPDRFSGSGSGTDFTLTISNLQAEDVASYYCQQNNEDPLTFGAGT | binds | binds |
| felHclb-16 (antibody, V domains shown) VH: QVLLVQSGAEVRTPGASVKIFCKASGYIFITYYMHWVRQSPAQGLEWMGSIFPASGSTSYAQKFQGRLTLTADTSTNTAYMELSSLRSADTAMYYCARGDGNYALDAMDYWGQGTSVTVSS VL: DVVMTQTPLSLPVTPGEPASISCRASESVDSYGNSFMHWYLQKPGQSPRRLIYLASNLESGVPDRFSGSGSGTDFTLRISRVEADDVGVYYCQQNNEDPLTFGAGT | binds | binds |
| felHclb_heterochimera-7 (antibody, V domains shown) VH: EVQLVQSGAEVKKPGASVKVSCKTSGYTFITYWMNWVRQAPGAGLDWMGQIFPASGSTNYNEMFEGRVTLTADTSTSTAYMELSSLRAGDIAVYYCARGDGNYALDAMDYWGQGTLVT VL: DIVMTQTPLSLPVTPGEPASISCRASESVDSYGNSFMHWYLQKPGQSPRLLIYLASNLESGVPSRFSGSGSGTDFTLRISSVEADDVGVYYCQQNNEDPLTFGAGT | binds | binds |

Source: US20220119513A1
